± gives the standard deviation of the averaged measurements. The reference is the same well before dosing, and untreated signal decays as well.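 Fibroblast labels name human fibroblasts: mostly primary ones from tissues such as uterus (C12385, HUF), lung (H6013), bone (Hs27A), adrenal (HADF) and skin (WS1), plus mammary HMF and breast cancer-associated Hs343T. The cancer cells are basal-like or mesenchymal-like triple-negative breast cancer lines. The paper calls a changed response a hit when it shifts by more than 3x the replicate standard deviation. The tissue of the other fibroblasts is not given here.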
Tested on: MDAMB231
Experiment: relative JC-1 red fluorescence (viability) vs pre-drug, coculture with fibroblast (fraction); higher = more viable cancer cells
Protocol: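 JC-1 labelled TNBC cells cocultured 1:1 (1,500 cells each) with CellTrace Violet stained primary or stromal fibroblasts in 384-well plates in FluoroBrite medium, treated with one of 42 anticancer drugs at 0.1, 1, 10 or 100 uM. JC-1 red fluorescence (mitochondrial integrity in cancer cells only) was read by plate reader every 8 h for 72 h. Values are normalised to each well's pre-drug value. The stock of one drug was tenfold lower, so its dose labels may be too high.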

C#Cc1cccc(Nc2ncnc3cc(OCCOC)c(OCCOC)cc23)c1 [Erlotinib]
relative JC-1 red fluorescence
Details | 8 h | 16 h | 24 h | 32 h | 40 h | 48 h | 56 h | 64 h | 72 h
10 µM, coculture fibroblast: C12385 | 0.7747 ± 0.0012 | 0.8017 ± 0.0057 | 0.6578 ± 0.0032 | 0.771 ± 0.016 | 0.754 ± 0.018 | 0.737 ± 0.01 | 0.7136 ± 0.0042 | 0.708 ± 0.0099 | 0.702 ± 0.012
10 µM, coculture fibroblast: H6013 | 0.9024 ± 0.0064 | 0.882 ± 0.015 | 0.857 ± 0.046 | 0.869 ± 0.024 | 0.85 ± 0.034 | 0.824 ± 0.047 | 0.853 ± 0.043 | 0.837 ± 0.038 | 0.824 ± 0.038
10 µM, coculture fibroblast: H6019 | 0.889 ± 0.15 | 0.782 | 0.75 ± 0.13 | 0.727 | 0.794 ± 0.14 | 0.77 ± 0.11 | 0.739 ± 0.095 | 0.805 ± 0.2 | 0.765 ± 0.16
10 µM, coculture fibroblast: H6076 | 0.938 ± 0.045 | 0.922 ± 0.034 | 0.907 ± 0.03 | 0.908 ± 0.031 | 0.91 ± 0.023 | 0.891 ± 0.022 | 0.8913 ± 0.0031 | 0.8796 ± 0.005 | 0.8905 ± 0.0043
10 µM, coculture fibroblast: H6231 | 0.948 ± 0.073 | 0.981 ± 0.025 | 0.937 ± 0.029 | 0.904 ± 0.022 | 0.876 ± 0.047 | 0.868 ± 0.059 | 0.808 ± 0.039 | 0.794 ± 0.047 | 0.755 ± 0.017
10 µM, coculture fibroblast: HADF | 0.918 ± 0.0096 | 0.9114 ± 0.008 | 0.886 ± 0.017 | 0.897 ± 0.033 | 0.887 ± 0.033 | 0.812 ± 0.044 | 0.849 ± 0.065 | 0.843 ± 0.07 | 0.813 ± 0.071
10 µM, coculture fibroblast: HCFa | 0.939 ± 0.012 | 0.941 ± 0.015 | 0.951 ± 0.022 | 0.962 ± 0.039 | 0.922 ± 0.0082 | 0.813 ± 0.079 | 0.901 ± 0.048 | 0.869 ± 0.02 | 0.819 ± 0.016
10 µM, coculture fibroblast: HCPF | 0.862 ± 0.094 | 0.927 ± 0.076 | 0.886 ± 0.072 | 0.878 ± 0.081 | 0.849 ± 0.078 | 0.824 ± 0.077 | 0.807 ± 0.081 | 0.771 ± 0.086 | 0.762 ± 0.088
10 µM, coculture fibroblast: HHSteC | 0.915 ± 0.023 | 0.903 ± 0.026 | 0.877 ± 0.04 | 0.864 ± 0.061 | 0.854 ± 0.075 | 0.812 ± 0.068 | 0.805 ± 0.082 | 0.792 ± 0.079 | 0.771 ± 0.076
10 µM, coculture fibroblast: HMF | 0.9787 ± 0.00097 | 0.9661 ± 0.0019 | 0.9394 ± 0.0014 | 0.93 ± 0.024 | 0.917 ± 0.023 | 0.896 ± 0.023 | 0.88 ± 0.038 | 0.857 ± 0.03 | 0.853 ± 0.029
10 µM, coculture fibroblast: HPFa | 0.9724 ± 0.0015 | 0.9725 ± 0.0036 | 0.947 ± 0.025 | 0.932 ± 0.025 | 0.925 ± 0.044 | 0.891 ± 0.06 | 0.864 ± 0.054 | 0.856 ± 0.039 | 0.83 ± 0.042
10 µM, coculture fibroblast: HUF | 0.856 ± 0.011 | 0.7891 ± 0.0018 | 0.802 ± 0.0088 | 0.746 ± 0.018 | 0.709 ± 0.009 | 0.696 ± 0.015 | 0.662 ± 0.025 | 0.665 ± 0.021 | 0.652 ± 0.021
10 µM, coculture fibroblast: Hs5 | 0.957 ± 0.03 | 0.926 ± 0.047 | 0.913 ± 0.042 | 0.898 ± 0.038 | 0.874 ± 0.018 | 0.833 ± 0.035 | 0.808 ± 0.0085 | 0.7947 ± 0.0057 | 0.786 ± 0.018
10 µM, coculture fibroblast: Hs27A | 0.912 ± 0.0072 | 0.902 ± 0.0071 | 0.8723 ± 0.002 | 0.853 ± 0.013 | 0.82 ± 0.011 | 0.709 ± 0.035 | 0.767 ± 0.029 | 0.757 ± 0.03 | 0.718 ± 0.03
10 µM, coculture fibroblast: Hs343T | 0.929 ± 0.085 | 0.913 ± 0.089 | 0.886 ± 0.082 | 0.883 ± 0.085 | 0.866 ± 0.095 | 0.857 ± 0.1 | 0.833 ± 0.095 | 0.821 ± 0.097 | 0.813 ± 0.083
10 µM, coculture fibroblast: WS1 | 0.773 ± 0.01 | 0.775 ± 0.021 | 0.662 ± 0.021 | 0.73 ± 0.036 | 0.729 ± 0.029 | 0.718 ± 0.042 | 0.694 ± 0.037 | 0.688 ± 0.03 | 0.665 ± 0.022
100 µM, coculture fibroblast: C12385 | 0.84 ± 0.04 | 0.887 ± 0.075 | 0.844 ± 0.046 | 0.893 ± 0.066 | 0.773 ± 0.062 | 0.344 ± 0.079 | 0.314 ± 0.07 | 0.339 ± 0.065 | 0.364 ± 0.048
100 µM, coculture fibroblast: H6013 | 0.938 ± 0.083 | 0.879 ± 0.17 | 0.911 ± 0.11 | 0.79965 ± 0.00012 | 0.81 ± 0.029 | 0.929 ± 0.046 | 0.875 ± 0.15 | 0.907 ± 0.11 | 0.836 ± 0.18
100 µM, coculture fibroblast: H6019 | 0.841 ± 0.011 | 0.853 ± 0.033 | 0.816 ± 0.042 | 0.867 ± 0.046 | 0.872 ± 0.06 | 0.893 ± 0.075 | 0.873 ± 0.076 | 0.886 ± 0.099 | 0.884 ± 0.096
100 µM, coculture fibroblast: H6076 | 0.9229 ± 0.0039 | 0.904 ± 0.017 | 0.908 ± 0.021 | 0.911 ± 0.02 | 0.899 ± 0.026 | 0.887 ± 0.017 | 0.896 ± 0.017 | 0.889 ± 0.003 | 0.894 ± 0.011
100 µM, coculture fibroblast: H6231 | 0.9522 ± 0.0046 | 0.931 ± 0.019 | 0.905 ± 0.014 | 0.893 ± 0.022 | 0.867 ± 0.035 | 0.846 ± 0.045 | 0.841 ± 0.037 | 0.822 ± 0.041 | 0.801 ± 0.037
100 µM, coculture fibroblast: HADF | 0.852 ± 0.17 | 0.951 ± 0.067 | 0.869 ± 0.17 | 0.881 ± 0.15 | 0.849 ± 0.17 | 0.828 ± 0.13 | 0.89 ± 0.1 | 0.889 ± 0.13 | 0.847 ± 0.11
100 µM, coculture fibroblast: HCFa | 0.9882 ± 0.0069 | 0.854 ± 0.16 | 0.894 ± 0.1 | 0.932 ± 0.028 | 0.931 ± 0.013 | 0.957 ± 0.04 | 0.966 ± 0.028 | 0.942 ± 0.021 | 0.905 ± 0.023
100 µM, coculture fibroblast: HCPF | 0.9385 ± 0.0073 | 0.905 ± 0.014 | 0.903 ± 0.032 | 0.901 ± 0.029 | 0.873 ± 0.048 | 0.851 ± 0.051 | 0.842 ± 0.051 | 0.818 ± 0.05 | 0.809 ± 0.054
100 µM, coculture fibroblast: HHSteC | 0.854 ± 0.18 | 0.872 ± 0.17 | 0.928 ± 0.044 | 0.9392 ± 0.0087 | 0.834 ± 0.17 | 0.918 ± 0.035 | 0.908 ± 0.018 | 0.877 ± 0.072 | 0.871 ± 0.048
100 µM, coculture fibroblast: HMF | 0.873 ± 0.032 | 0.912 ± 0.032 | 0.817 ± 0.12 | 0.795 ± 0.14 | 0.943 ± 0.07 | 0.933 ± 0.058 | 0.933 ± 0.038 | 0.919 ± 0.019 | 0.91 ± 0.02
100 µM, coculture fibroblast: HPFa | 0.9937 ± 0.00073 | 0.837 ± 0.13 | 0.947 ± 0.064 | 0.892 ± 0.13 | 0.718 ± 0.013 | 0.891 ± 0.12 | 0.853 ± 0.15 | 0.968 ± 0.028 | 0.955 ± 0.024
100 µM, coculture fibroblast: HUF | 0.898 ± 0.023 | 0.866 ± 0.022 | 0.903 ± 0.018 | 0.864 ± 0.035 | 0.837 ± 0.019 | 0.84 ± 0.03 | 0.803 ± 0.029 | 0.806 ± 0.019 | 0.792 ± 0.028
100 µM, coculture fibroblast: Hs5 | 0.919 ± 0.013 | 0.895 ± 0.011 | 0.8929 ± 0.006 | 0.878 ± 0.013 | 0.86 ± 0.0063 | 0.832 ± 0.02 | 0.822 ± 0.015 | 0.805 ± 0.014 | 0.7968 ± 0.005
100 µM, coculture fibroblast: Hs27A | 0.932 ± 0.058 | 0.915 ± 0.079 | 0.858 ± 0.14 | 0.866 ± 0.17 | 0.965 ± 0.021 | 0.8979 ± 0.0019 | 0.954 ± 0.024 | 0.959 ± 0.027 | 0.92 ± 0.021
100 µM, coculture fibroblast: Hs343T | 0.945 ± 0.037 | 0.929 ± 0.028 | 0.937 ± 0.016 | 0.937 ± 0.011 | 0.921 ± 0.02 | 0.891 ± 0.018 | 0.874 ± 0.0029 | 0.84853 ± 0.00049 | 0.837 ± 0.01
100 µM, coculture fibroblast: WS1 | 0.787 ± 0.024 | 0.794 ± 0.026 | 0.7371 ± 0.0061 | 0.793 ± 0.016 | 0.782 ± 0.01 | 0.78 ± 0.011 | 0.7679 ± 0.0023 | 0.763 ± 0.018 | 0.754 ± 0.035

Source: the supplement of paper PMC6078165
